Reference: paper PMC6370850
Results are given in words; binding and its absence hold for the method and conditions named. Binding seen in cells or lysates may run through a third protein. A yes stands for co-enrichment or nearness to the bait. Other partners may have been found.

The chains behind the UniProt entries cited, without tags or fusion partners.
UniProt P42227: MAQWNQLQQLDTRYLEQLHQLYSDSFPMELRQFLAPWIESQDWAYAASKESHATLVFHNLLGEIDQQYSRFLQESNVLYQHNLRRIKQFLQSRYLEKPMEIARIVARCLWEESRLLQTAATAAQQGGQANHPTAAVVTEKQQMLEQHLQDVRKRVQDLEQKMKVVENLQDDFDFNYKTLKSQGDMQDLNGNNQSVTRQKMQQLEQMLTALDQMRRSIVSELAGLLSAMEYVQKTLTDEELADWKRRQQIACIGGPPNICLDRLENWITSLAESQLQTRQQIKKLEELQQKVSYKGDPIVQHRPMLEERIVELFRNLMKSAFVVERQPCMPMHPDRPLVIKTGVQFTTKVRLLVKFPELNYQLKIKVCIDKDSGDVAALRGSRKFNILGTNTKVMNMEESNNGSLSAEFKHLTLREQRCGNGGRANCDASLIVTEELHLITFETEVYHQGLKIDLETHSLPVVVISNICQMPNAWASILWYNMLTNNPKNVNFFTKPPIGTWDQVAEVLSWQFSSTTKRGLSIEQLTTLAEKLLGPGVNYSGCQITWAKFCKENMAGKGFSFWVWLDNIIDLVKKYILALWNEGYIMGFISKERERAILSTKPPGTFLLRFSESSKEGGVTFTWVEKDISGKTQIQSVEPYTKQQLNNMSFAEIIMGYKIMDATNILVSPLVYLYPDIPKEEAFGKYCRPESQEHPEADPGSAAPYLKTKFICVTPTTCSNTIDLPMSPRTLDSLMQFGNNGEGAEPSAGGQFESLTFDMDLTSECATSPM

Molecular target: Flag-Stat3 (mouse) (UniProt P42227)
Assay: affinity purification with mass spectrometry; ANTI-FLAG M2 Affinity Gel immunoprecipitation from HEK293T cells co-transfected with HA-Ub and Flag-Stat3 or Flag-Malt1A, with or without Xpress-Hectd3; elution with 0.1 M glycine HCl pH 3.5; trypsin digestion, LC-MS/MS

B1: Xpress-Hectd3 (enzyme, UniProt Q3U487 1-861)
chain: MAGPGPGAALESPRQLLGRVRFLAEAARSLRAGLPLPAALAFVPREVLYKLYKDPAGPSRVLLPVWEAEGLGLRVGAVGAAPGTGSGPLRAARDSIELRRGACVRTTGEELCNGHGLWVKLTKEQLAEHLSDCSLDEGWLLVCRPAEGGARLVPIDTPDHLQRQQQLFGVDYRPVLRWEQVVDLTYSHRLGSRPQPAEAYTEAIQRLLYVPPTWTYECDEDLIHFLYDHLGKEDENLGSVKQYVESIDVSSYTEEFNVSCLTDSNADTYWESDGSQCQHWVRLTMKKGTIVKKLLLTVDTTDDNFMPKRVVVYGGEGDNLKKLSDVNIDETLIGDVCVLEDMTVHLPIIEIRIVECRDDGIDVRLRGVKIKSSRQRELGLNADLFQPASLVRYPRLEGTDPEVLYRRAVLLQRFIKILDSVLHHLVPAWDHTLGTFSEIKQVKQFLLLSRQRPSLVAQCLRDSESSKPSFMPRLYINRRLAMEHRACPSRDPACKNAVFTQVYEGLKPSDKYEKPLDYRWPMRYDQWWECKFIAEGIIDQGGGFRDSLADMSEELCPSSADTPVPLPFFVRTANQGNGTGEARDMYVPNPSCRDFAKYEWIGQLMGAALRGKEFLVLALPGFVWKQLSGEEVSWSKDFPAVDSVLVKLLEVMEGVDKETFEFKFGKELTFTTVLSDQQVVELIPGGTGIVVEYEDRSRFIQLVRKARLEESKEQVAAMQAGLLKVVPQAVLDLLTWQELEKKVCGDPEVTVDALRKLTRFEDFEPSDTRVQYFWEALNNFTNEDRSRFLRFVTGRSRLPARIYIYPDKLGYETTDALPESSTCSSTLFLPHYASAKVCEEKLRYAAYNCVAIDTDMSPWEE
binding: binds
